Data published in paper PMC8179929.
No constants are given. Whether binding was seen depends on the method and setting. Binding seen in cells or lysates may run through a third protein. Some entries that bind do so weakly or less than the wild type. For some of these results: Where a sequence is shown, tags or fusion partners need not be part of it. Blank lines part the entries; values can stand above or below the molecule they belong to.

Amino acid sequences for entries named in this document (tags omitted).
UniProt Q15717: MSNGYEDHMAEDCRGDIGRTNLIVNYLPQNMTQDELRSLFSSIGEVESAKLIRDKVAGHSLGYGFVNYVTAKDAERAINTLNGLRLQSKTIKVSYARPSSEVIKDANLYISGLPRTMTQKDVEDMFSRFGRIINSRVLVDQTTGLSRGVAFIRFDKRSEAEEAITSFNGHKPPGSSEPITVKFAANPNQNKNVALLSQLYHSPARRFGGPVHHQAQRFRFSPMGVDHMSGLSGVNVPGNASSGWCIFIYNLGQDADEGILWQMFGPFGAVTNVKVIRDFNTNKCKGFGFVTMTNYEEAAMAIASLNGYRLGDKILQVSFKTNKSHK
UniProt P12956: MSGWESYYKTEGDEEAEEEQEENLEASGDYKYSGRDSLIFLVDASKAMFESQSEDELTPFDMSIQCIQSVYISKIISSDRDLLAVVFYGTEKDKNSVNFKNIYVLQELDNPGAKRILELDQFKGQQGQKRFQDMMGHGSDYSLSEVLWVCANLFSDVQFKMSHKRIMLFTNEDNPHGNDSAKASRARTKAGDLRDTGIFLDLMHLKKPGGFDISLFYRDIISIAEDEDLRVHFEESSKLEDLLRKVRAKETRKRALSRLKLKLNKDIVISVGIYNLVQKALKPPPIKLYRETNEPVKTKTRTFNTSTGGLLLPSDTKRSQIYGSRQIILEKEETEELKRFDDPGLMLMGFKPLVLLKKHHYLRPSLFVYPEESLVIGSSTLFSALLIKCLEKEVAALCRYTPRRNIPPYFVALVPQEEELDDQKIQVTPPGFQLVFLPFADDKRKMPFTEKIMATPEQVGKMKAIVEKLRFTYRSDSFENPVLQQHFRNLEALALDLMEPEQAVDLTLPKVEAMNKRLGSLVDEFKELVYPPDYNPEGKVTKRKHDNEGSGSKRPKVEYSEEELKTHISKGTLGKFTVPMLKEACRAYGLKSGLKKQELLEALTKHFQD

Legend:
[1] = molecular target: T1, RING domain of Pirh2 (RING-GST) (human) (UniProt Q96PM5); assay: pull-down; purified GST-tagged Pirh2 domains, full-length Pirh2-GST and GST incubated with whole-cell extract from HEK293T; western blot for HuR; only the target purified
T1 sequence: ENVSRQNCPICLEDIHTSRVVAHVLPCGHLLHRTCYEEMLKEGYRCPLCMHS

Pirh2-3×FLAG (human) = molecular target: T2, Pirh2-3×FLAG (human) (UniProt Q96PM5); assay: co-IP; HEK293T transiently transfected with Pirh2-3×FLAG or empty vector; lysates in modified RIPA buffer on anti-FLAG M2 agarose 4 h at 4 °C, eluted with 3× FLAG peptide; western blot for endogenous HuR
T2 sequence: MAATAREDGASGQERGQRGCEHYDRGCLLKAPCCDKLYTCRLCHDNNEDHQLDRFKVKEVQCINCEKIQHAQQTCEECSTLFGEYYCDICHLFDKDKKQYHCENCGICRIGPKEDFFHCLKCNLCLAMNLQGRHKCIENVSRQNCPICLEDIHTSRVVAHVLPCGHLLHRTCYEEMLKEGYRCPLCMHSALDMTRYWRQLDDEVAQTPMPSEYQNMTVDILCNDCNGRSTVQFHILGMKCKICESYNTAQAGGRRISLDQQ

[2] = molecular target: HuR (ELAVL1), endogenous in HeLa (human (endogenous in HeLa)) (UniProt Q15717); assay: co-IP; extract of 1 × 10^7 HeLa cells, 5 μg anti-HuR mouse monoclonal antibodies or mouse IgG, 4 °C 4 h, Protein G magnetic beads; western blot
HuR-3×FLAG = HuR-3×FLAG (UniProt Q15717); assay: co-IP; HeLa cells with ectopically expressed HuR-3×FLAG or empty pIRES vector; western blot for endogenous Pirh2
HuR-GST [3] = molecular target: HuR-GST (UniProt Q15717); assay: pull-down; purified HuR-GST (GST as control) with cellular extract from HEK293T cells; western blot for endogenous Pirh2; only the target purified
HuR-GST [4] = molecular target: HuR-GST (UniProt Q15717); assay: pull-down; reciprocal pull-downs of Pirh2 with Ku70-GST, HuR-GST or GST alone (Supplementary Fig. S1); source of Pirh2 not given, by the general method a cell lysate; only the target purified
Ku70-GST = Ku70-GST (UniProt P12956); assay: as above

binding [2]: binds | binding (HuR-3×FLAG): binds
B1: Pirh2, endogenous in HeLa (enzyme, UniProt Q96PM5 1-261)
chain: T2 sequence

binding (HuR-GST [4]): binds | binding (Ku70-GST): binds
B3: Pirh2 (prey of the reciprocal pull-downs of Supplementary Fig. S1) (enzyme, UniProt Q96PM5 1-261)
chain: T2 sequence

The remaining lines, values behind:

Molecule: HuR (ELAVL1), endogenous in HEK293T (from UniProt Q15717 1-326)
binding [1]: binds | binding (Pirh2-3×FLAG (human)): binds

B2: Pirh2, endogenous in HEK293T (enzyme, UniProt Q96PM5 1-261)
chain: T2 sequence
binding (HuR-GST [3]): binds
